In PMC7819943, “Rice protein-binding microarrays: a tool to detect cis-acting elements near promoter regions in rice” one finds binding signal data, which are given here for 42 sequences.

This is one part of the list.

The assay has as its target T1, OsSMF1 (Oryza sativa, UniProt Q6ZLB0 1-436).
T1 sequence: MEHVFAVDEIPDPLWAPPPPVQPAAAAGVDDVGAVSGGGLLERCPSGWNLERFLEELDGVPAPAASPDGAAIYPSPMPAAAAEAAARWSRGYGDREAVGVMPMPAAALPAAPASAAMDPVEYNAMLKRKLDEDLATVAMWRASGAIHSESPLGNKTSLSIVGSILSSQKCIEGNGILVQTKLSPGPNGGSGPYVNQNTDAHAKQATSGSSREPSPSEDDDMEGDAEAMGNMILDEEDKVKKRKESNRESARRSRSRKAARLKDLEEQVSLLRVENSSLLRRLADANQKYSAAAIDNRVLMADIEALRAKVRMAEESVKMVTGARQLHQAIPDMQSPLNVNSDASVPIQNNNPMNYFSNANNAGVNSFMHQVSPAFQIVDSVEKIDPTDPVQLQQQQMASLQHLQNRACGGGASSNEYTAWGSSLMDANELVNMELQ
Briefly: protein-binding microarray (RPBM); PBS, 2% BSA, 51.3 ng/ul salmon testes DNA, 50 uM zinc acetate, 200 nM TF, 25 C, 1 h; high values mean tight binding. The settings on record: protein: recombinant; tags: N-terminal polyhistidine and DsRed monomer fusion (pET32a); chain copies: 2; label: CyDye5-dUTP incorporated in the synthesized complementary strand; 3' TTTTT single-stranded linker to array surface; dsDNA, one strand shown. The method in brief: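 Ni–NTA purification followed expression in E. coli BL21-CodonPlus of transcription factors fused N-terminally to a polyhistidine tag and DsRed. At 200 nM in PBS with 2% BSA, salmon testes DNA and 50 µM zinc acetate, the protein was incubated for 1 h at 25 °C with a custom Agilent array that had been primer-extended with Cy5-dUTP and blocked with 2% BSA. After washing, the array was read on an Axon 4000B scanner. The binding signal is per-feature fluorescence intensity in arbitrary units.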
With “TCTTCACCACTTCTTGCATGATCATATGAACGCTGAGGTGCGGAGTCACCTAGTGCAG”, the binding signal was 6550 fluorescence intensity (a.u.). The value for “CGGCCGCCACGACGACCCCGCGTCACCCTAGGGCATAGCCCGGAGTCACCTAGTGCAG” was 4730 fluorescence intensity (a.u.); that for “TGCTCCGGTGGGTGTCCTATTTATAGAAATAAATTTCATACGGAGTCACCTAGTGCAG” was 38600 fluorescence intensity (a.u.); that for “ACAAAGTTCAGATCTGTGCAAGGCAAGATGATATTGAAGTCGGAGTCACCTAGTGCAG” was 26800 fluorescence intensity (a.u.).

For “AAAAGTTTAGACAAGAAAACACGTAACAAGTTGGTTTGCACGGAGTCACCTAGTGCAG”, the binding signal is 4100 fluorescence intensity (a.u.). As for “CGGGTTGGTAACTCTTGCCTCCAGCATAGAAAACGGAGCGCGGAGTCACCTAGTGCAG”, the figure is 3930 fluorescence intensity (a.u.); as for “CTTCCATTTCCACGTGCTCATTCACGCCCGCATCATAAACCGGAGTCACCTAGTGCAG”, 3430 fluorescence intensity (a.u.).

With “TGTTTACAGTTGTCTGATTCAGGGTCAATGTAATCGTCGTCGGAGTCACCTAGTGCAG”, the binding signal is 3660 fluorescence intensity (a.u.). As for “CGAGTCTCCCGGGCCCACGCGTCATCCTCTCCATCCCCTCCGGAGTCACCTAGTGCAG”, the figure is 3700 fluorescence intensity (a.u.). The value for “GTTGAGCACGATGTCATCGTCGCACTCTCCCGACAGTCATCGGAGTCACCTAGTGCAG” was 3900 fluorescence intensity (a.u.). The value for “AAAGGAGGATCTTGTCCACATCGGATGCAGGGCAGGATAGCGGAGTCACCTAGTGCAG” was 5400 fluorescence intensity (a.u.); that for “CCAAAGCGCCACCAACTGATGACTGCAACCTCTCATCAACCGGAGTCACCTAGTGCAG” was 3480 fluorescence intensity (a.u.). Consider “GTATTGTGTGTATTTATACATCATGAAAGAATAGAATAAACGGAGTCACCTAGTGCAG”, for which the binding signal is 28600 fluorescence intensity (a.u.). The value for “CGCTTGCACGCGTGTGTGCAGCGCGGCTGCATGCGTGGAGCGGAGTCACCTAGTGCAG” was 5600 fluorescence intensity (a.u.); that for “CGAAGAAAGGCATCTGGTCCCGTGACGCTGCCGTGAAACACGGAGTCACCTAGTGCAG” was 3920 fluorescence intensity (a.u.); that for “AATTCTTCTTCACATGCTTCTTCGCGTCATGCATAAACACCGGAGTCACCTAGTGCAG” was 3510 fluorescence intensity (a.u.). The value for “CCACCACGTCCTCCTCTCCACATCCTTTTCATCTCCCACCCGGAGTCACCTAGTGCAG” was 5610 fluorescence intensity (a.u.). For the sequence “TTCTTCCTTCAAAATTTCTTTCTCCTACTCAGCATTGCGTCGGAGTCACCTAGTGCAG”, the binding signal is 4620 fluorescence intensity (a.u.). As for “ACAGCAATATTTATATAACCTTATGGCGTGTCAAACTTTCCGGAGTCACCTAGTGCAG”, the figure is 6530 fluorescence intensity (a.u.); as for “AACTGTTCCTACTATATGCGCCGTGACAAGTGACTCAAATCGGAGTCACCTAGTGCAG”, 4960 fluorescence intensity (a.u.); as for “ATATATATCCGTATATCCGATGTGACACGCCAAAACTTTACGGAGTCACCTAGTGCAG”, 3580 fluorescence intensity (a.u.). For the sequence “AGTCTAAATTTTCCCTGGGAAGTCTGAGCTGGATGACAGGCGGAGTCACCTAGTGCAG”, the binding signal was 4120 fluorescence intensity (a.u.). As for “TTTGTGACTTACTTTATTATCAAAAGTACTTTAAGCATACCGGAGTCACCTAGTGCAG”, the figure is 3160 fluorescence intensity (a.u.); as for “CATCTCGTGCTAGCTACATATATGCGTTGTCAATGACTGTCGGAGTCACCTAGTGCAG”, 3930 fluorescence intensity (a.u.). Regarding “GAGGCAGTGTGTTGTGGAGTCGTATGGCGAGTCCTTGTCTCGGAGTCACCTAGTGCAG”, the binding signal was 3460 fluorescence intensity (a.u.). Take “GCCCCTCGCCAACAACAGGCGCGACGAATCCGGTTCAAATCGGAGTCACCTAGTGCAG”: the binding signal was 28400 fluorescence intensity (a.u.). “ACTGATCGGTCTTGCAAGCTATCGAGCACGCGCAGGCAGACGGAGTCACCTAGTGCAG”: the binding signal is 20200 fluorescence intensity (a.u.). As for “TAGCTGTTTGACATAACGAGCTAGGCTGATACACTCATACCGGAGTCACCTAGTGCAG”, the binding signal is 3210 fluorescence intensity (a.u.). The value for “TCGTCGATCATCAACCGCATCAGCATCCATCCATCCATCCCGGAGTCACCTAGTGCAG” was 3210 fluorescence intensity (a.u.).

Consider “AACATATTACTGTCAACTGATGACTTGGCTGTATTAGAAGCGGAGTCACCTAGTGCAG”, for which the binding signal was 4360 fluorescence intensity (a.u.).

Consider “TTTTAGCGTGTTGTTAATCTCTCTGCAATAGCCTCTGATCCGGAGTCACCTAGTGCAG”, for which the binding signal is 4520 fluorescence intensity (a.u.). Consider “ACGTGACAACCGTTGCCTACTCATCTGACAGCATTATCCGCGGAGTCACCTAGTGCAG”, for which the binding signal is 7020 fluorescence intensity (a.u.). As to “GTTAAATGGCTAAATGACTCATTTAATTCGCATTAGTGATCGGAGTCACCTAGTGCAG”, the binding signal was 8460 fluorescence intensity (a.u.).

With “GGTTGTGTGGCTAAACGTGGCTAAGTGTGTGTGTGTGCGTCGGAGTCACCTAGTGCAG”, the binding signal was 5140 fluorescence intensity (a.u.). Consider “GCATTATTGGGACCTATATATCTTCTTTGCCACGTACAGTCGGAGTCACCTAGTGCAG”, for which the binding signal is 7740 fluorescence intensity (a.u.). Take “TCCCATCAAATCTCCTCCAAACACTTGAGATCCATCCCTGCGGAGTCACCTAGTGCAG”: the binding signal was 16500 fluorescence intensity (a.u.).

For “CGAGCCGCCTCCGCCACCGCCGCCTCCTTCCGACCAGCCGCGGAGTCACCTAGTGCAG”, the binding signal is 3530 fluorescence intensity (a.u.). The value for “TTTAGTACAAGCCACGTAAATGCCTTAGGGGCCTTGTTGCCGGAGTCACCTAGTGCAG” was 6180 fluorescence intensity (a.u.); that for “GTATCACCGTGGTATACCACGTCATCTCACGGAGCGGGTTCGGAGTCACCTAGTGCAG” was 12800 fluorescence intensity (a.u.); that for “GCGAGAGCTCTTCGTCTTCTCCAACTCGACCGGAAGCAAGCGGAGTCACCTAGTGCAG” was 3940 fluorescence intensity (a.u.). As to “TTCAACCGTGCACTGTACTGTCACGCACGCACATAGTCGACGGAGTCACCTAGTGCAG”, the binding signal was 3830 fluorescence intensity (a.u.). The value for “TCGAGGCGTATGCCGTGGCGTGGCTTCCTGCCCCTGCGCTCGGAGTCACCTAGTGCAG” was 7240 fluorescence intensity (a.u.).
